According to article PMC9838815:
No constants are given. Whether binding was seen depends on the method and setting.

By UniProt entry, the sequences of proteins in these tests, tags left out. Residues count along the entry.
UniProt Q29443, residues 20-704: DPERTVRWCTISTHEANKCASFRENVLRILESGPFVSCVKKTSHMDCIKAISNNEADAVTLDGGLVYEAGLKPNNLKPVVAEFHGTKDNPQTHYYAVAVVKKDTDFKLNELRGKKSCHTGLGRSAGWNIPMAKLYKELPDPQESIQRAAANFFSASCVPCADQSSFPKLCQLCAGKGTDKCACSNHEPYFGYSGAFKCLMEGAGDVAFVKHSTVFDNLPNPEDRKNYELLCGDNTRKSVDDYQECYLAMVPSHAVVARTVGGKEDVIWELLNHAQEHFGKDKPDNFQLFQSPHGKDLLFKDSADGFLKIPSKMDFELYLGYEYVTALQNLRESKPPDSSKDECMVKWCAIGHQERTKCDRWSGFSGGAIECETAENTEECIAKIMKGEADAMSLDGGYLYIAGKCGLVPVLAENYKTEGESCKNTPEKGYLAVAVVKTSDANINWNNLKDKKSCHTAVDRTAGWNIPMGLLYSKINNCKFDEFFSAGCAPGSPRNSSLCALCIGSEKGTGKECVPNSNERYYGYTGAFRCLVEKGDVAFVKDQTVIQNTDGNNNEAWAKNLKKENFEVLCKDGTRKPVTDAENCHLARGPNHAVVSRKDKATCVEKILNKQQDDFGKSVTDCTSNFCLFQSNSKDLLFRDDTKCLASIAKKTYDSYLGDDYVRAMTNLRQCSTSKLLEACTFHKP
UniProt P24627, residues 20-708: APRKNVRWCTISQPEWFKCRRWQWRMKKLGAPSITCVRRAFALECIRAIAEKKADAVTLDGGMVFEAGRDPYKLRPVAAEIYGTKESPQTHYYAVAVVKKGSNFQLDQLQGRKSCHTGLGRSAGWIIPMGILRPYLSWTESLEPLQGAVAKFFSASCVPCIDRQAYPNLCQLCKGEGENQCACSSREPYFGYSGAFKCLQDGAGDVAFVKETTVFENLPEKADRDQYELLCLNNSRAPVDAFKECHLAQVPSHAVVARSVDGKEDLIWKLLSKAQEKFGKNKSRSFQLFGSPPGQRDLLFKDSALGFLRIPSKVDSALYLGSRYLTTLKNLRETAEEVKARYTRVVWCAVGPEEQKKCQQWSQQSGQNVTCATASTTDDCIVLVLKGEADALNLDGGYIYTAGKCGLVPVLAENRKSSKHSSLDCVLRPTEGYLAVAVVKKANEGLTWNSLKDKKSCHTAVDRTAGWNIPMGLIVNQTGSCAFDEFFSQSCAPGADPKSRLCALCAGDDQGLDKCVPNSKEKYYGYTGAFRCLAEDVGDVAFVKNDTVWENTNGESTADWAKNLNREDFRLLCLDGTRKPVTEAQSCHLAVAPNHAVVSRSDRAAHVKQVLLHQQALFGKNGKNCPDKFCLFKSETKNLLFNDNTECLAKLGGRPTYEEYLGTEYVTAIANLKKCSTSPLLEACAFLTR
UniProt P02789, residues 20-705: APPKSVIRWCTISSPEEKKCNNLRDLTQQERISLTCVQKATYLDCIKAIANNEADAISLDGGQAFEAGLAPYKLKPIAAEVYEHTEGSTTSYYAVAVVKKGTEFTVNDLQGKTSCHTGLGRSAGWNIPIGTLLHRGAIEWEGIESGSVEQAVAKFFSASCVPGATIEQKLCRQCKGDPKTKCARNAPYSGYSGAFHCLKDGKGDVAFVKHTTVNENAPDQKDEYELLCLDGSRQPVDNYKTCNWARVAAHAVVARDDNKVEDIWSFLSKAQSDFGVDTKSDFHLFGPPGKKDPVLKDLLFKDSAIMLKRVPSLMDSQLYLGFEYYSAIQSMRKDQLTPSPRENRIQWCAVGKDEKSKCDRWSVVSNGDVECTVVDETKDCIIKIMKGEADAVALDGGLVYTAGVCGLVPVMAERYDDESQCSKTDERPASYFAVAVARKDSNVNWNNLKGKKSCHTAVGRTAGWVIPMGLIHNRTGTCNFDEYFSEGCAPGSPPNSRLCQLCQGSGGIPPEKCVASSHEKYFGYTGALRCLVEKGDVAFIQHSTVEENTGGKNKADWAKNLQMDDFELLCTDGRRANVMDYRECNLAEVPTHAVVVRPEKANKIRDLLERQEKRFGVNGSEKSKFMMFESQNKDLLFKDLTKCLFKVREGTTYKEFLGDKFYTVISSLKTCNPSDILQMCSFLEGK
UniProt P11974: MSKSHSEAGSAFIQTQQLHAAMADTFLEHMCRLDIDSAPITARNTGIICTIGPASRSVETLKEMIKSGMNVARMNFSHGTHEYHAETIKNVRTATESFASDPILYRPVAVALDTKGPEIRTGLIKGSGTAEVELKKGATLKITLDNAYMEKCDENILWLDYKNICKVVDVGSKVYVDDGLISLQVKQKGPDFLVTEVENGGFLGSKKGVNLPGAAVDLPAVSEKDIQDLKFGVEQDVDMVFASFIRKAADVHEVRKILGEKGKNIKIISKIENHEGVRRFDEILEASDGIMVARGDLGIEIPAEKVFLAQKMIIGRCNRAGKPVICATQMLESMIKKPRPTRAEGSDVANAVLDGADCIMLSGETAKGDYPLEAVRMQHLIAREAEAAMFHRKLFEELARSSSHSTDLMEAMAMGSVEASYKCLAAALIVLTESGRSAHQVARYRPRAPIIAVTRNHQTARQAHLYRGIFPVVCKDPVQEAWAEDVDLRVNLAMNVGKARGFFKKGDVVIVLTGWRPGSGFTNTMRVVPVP
UniProt P02769, residues 25-607: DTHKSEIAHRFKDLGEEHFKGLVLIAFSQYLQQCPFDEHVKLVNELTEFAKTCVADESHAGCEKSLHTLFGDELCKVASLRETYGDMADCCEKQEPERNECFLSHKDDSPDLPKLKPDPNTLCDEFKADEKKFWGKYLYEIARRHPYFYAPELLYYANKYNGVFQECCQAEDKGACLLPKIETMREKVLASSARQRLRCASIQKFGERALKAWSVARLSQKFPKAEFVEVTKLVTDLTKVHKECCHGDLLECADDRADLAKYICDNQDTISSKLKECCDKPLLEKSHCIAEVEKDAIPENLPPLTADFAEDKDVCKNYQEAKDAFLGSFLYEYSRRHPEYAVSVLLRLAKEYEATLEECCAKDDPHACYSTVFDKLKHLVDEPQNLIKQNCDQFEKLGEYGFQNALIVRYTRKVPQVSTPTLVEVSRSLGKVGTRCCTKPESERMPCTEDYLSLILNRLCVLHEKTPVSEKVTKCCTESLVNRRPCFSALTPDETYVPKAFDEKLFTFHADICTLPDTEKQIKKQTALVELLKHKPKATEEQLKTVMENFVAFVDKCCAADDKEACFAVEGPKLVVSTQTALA
UniProt P00563: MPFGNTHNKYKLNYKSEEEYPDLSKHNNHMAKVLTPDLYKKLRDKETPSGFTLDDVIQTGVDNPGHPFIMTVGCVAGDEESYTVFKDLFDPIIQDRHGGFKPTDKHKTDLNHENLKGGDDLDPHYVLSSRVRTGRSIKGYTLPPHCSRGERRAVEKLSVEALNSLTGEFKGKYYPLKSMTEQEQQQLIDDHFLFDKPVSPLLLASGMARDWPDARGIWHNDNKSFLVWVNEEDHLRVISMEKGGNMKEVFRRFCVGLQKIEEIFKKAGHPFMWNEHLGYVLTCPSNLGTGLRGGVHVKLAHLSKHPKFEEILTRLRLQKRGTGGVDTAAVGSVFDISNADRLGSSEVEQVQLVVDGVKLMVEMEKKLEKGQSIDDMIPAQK

Experiments:
Assay in all cases: condition: 0.25 mg/mL per protein, corresponding to approximately 3–6 μM; cross-linking; mixture of eight model proteins in solution, 2 mg/mL total (0.25 mg/mL per protein), citrate-phosphate buffer, eight pH conditions (pH 4.0-7.5), 1 mM DSS (d0/d12) for 30 min at 37 °C; Lys-C/trypsin digest, LC-MS/MS, xQuest (score ≥ 25); both purified
[1] = target: bovine serotransferrin (bovine) (UniProt Q29443)
[2] = target: bovine lactotransferrin (bovine) (UniProt P24627)
[3] = target: chicken ovotransferrin (chicken) (UniProt P02789)
[4] = target: rabbit pyruvate kinase (rabbit) (UniProt P11974)
[5] = target: bovine serum albumin (bovine) (UniProt P02769)
[6] = target: T1, rabbit fructose-bisphosphate aldolase A (rabbit) (UniProt P00883)
T1 sequence: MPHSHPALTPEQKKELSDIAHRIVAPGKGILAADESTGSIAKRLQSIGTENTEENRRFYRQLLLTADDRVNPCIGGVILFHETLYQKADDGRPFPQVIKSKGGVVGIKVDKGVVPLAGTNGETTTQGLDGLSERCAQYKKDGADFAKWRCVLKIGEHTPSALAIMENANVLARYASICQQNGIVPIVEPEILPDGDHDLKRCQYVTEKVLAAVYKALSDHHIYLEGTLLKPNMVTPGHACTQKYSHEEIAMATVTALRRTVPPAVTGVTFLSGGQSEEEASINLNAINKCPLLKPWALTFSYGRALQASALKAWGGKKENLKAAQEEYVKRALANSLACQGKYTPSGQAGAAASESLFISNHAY

Measured: binding

bovine lactotransferrin (from UniProt P24627 20-708)
no binding: [1]

bovine serum albumin (from UniProt P02769 25-607)
no binding: [2] | [1] | [3] | [4]

chicken ovotransferrin (from UniProt P02789 20-705)
no binding: [2] | [1] | [4]

rabbit creatine kinase M-type (from UniProt P00563 1-381) (enzyme)
no binding: all assays above

rabbit pyruvate kinase (from UniProt P11974 1-531) (enzyme)
no binding: [2] | [1]
